The supplement of paper PMC10849652
The list shows a part of the results.

Protein sequences, listed by entry. Tags and fused reporters are not part of them. Lines headed by an entry give the natural chain unless they say otherwise; changes in a name come on top.
UniProt P51606: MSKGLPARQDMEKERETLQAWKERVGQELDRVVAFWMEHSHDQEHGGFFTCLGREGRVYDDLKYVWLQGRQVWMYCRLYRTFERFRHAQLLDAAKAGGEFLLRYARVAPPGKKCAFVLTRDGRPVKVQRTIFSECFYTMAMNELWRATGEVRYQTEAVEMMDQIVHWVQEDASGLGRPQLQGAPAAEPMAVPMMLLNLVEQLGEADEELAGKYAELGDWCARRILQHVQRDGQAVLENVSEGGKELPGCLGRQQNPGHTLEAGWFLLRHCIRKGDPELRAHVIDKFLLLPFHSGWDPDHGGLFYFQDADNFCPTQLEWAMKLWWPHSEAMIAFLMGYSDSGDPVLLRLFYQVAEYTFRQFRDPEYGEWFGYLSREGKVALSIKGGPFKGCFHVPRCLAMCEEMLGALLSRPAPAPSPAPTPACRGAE
UniProt Q5EBL4: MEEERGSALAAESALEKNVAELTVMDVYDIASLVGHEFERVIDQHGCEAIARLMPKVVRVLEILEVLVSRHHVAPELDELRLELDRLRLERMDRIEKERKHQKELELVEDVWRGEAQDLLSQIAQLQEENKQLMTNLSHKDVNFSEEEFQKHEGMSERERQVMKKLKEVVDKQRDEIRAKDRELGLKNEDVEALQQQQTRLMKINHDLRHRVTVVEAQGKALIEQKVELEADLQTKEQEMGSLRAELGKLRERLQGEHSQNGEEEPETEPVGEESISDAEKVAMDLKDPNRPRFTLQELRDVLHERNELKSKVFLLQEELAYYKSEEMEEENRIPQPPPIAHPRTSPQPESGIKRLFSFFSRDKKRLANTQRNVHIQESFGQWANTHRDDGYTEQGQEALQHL
UniProt P62745, whole entry, looked up: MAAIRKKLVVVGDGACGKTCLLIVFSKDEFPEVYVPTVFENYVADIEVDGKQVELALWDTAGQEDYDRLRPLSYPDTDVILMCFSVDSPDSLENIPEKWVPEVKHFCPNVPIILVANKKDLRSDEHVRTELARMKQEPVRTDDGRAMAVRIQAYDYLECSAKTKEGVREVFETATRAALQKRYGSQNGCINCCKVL
UniProt O43567: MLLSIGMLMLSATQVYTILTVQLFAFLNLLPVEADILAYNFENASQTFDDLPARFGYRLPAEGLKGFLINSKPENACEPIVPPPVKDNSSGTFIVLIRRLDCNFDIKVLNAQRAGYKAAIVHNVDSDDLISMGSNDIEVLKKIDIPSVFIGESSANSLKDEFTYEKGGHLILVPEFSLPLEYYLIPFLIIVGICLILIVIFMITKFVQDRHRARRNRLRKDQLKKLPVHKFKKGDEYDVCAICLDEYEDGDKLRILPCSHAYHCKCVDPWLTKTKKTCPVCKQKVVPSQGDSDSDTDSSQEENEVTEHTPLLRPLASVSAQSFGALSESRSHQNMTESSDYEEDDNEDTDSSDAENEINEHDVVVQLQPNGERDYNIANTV
UniProt P40937, whole entry, looked up: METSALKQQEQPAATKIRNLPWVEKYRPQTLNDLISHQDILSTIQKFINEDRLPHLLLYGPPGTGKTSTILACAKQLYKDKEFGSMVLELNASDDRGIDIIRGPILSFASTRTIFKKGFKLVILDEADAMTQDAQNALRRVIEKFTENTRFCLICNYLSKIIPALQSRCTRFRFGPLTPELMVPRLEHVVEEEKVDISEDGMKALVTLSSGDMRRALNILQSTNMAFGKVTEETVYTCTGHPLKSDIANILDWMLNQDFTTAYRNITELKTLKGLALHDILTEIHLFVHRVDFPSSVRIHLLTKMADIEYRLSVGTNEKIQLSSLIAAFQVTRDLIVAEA
UniProt Q9Y508: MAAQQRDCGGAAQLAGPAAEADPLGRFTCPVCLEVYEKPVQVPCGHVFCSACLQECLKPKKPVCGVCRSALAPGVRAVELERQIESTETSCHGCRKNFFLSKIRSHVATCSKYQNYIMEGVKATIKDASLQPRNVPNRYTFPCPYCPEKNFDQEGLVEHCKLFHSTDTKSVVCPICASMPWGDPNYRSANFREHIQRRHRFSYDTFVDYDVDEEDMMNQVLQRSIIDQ
UniProt Q9NWS8: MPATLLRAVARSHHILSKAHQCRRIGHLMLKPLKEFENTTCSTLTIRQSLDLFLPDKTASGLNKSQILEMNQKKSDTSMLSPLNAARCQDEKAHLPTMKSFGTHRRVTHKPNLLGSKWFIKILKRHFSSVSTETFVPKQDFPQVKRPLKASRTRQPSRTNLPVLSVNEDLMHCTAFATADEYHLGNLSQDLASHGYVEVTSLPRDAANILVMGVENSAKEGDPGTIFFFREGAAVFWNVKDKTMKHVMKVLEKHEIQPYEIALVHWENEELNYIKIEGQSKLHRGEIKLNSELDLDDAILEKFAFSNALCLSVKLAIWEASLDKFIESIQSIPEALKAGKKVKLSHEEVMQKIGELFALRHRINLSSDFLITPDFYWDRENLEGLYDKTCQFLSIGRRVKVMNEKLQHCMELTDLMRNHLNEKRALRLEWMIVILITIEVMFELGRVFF
UniProt Q5TC82: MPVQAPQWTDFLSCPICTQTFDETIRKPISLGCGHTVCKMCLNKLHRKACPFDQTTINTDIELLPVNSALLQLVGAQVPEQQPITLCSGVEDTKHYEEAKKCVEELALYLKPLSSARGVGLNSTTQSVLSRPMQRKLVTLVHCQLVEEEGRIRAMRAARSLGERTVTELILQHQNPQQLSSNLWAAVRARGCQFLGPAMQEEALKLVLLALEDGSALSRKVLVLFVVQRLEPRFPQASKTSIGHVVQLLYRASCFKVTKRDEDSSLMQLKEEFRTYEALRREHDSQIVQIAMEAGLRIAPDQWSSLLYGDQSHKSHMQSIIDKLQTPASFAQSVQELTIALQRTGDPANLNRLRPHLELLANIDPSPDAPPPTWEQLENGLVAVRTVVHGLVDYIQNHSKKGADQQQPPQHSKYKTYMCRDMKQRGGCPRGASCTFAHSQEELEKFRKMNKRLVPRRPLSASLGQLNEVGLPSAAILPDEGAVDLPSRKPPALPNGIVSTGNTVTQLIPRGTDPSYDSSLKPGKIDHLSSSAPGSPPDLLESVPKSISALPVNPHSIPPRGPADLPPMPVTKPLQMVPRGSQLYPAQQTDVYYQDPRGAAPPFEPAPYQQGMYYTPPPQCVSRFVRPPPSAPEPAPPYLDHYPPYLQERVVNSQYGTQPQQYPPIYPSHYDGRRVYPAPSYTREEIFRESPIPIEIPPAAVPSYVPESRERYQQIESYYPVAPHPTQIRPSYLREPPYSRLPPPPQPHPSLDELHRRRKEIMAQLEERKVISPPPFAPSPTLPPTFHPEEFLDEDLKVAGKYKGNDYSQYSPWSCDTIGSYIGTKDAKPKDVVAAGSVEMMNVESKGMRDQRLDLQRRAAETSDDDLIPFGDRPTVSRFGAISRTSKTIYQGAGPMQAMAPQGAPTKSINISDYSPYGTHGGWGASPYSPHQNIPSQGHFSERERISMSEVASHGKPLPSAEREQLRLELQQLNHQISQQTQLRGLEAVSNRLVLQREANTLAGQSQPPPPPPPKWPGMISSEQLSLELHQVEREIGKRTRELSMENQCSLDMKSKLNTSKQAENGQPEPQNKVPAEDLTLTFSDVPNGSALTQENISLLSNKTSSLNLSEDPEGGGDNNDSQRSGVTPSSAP
UniProt Q9Y2P8: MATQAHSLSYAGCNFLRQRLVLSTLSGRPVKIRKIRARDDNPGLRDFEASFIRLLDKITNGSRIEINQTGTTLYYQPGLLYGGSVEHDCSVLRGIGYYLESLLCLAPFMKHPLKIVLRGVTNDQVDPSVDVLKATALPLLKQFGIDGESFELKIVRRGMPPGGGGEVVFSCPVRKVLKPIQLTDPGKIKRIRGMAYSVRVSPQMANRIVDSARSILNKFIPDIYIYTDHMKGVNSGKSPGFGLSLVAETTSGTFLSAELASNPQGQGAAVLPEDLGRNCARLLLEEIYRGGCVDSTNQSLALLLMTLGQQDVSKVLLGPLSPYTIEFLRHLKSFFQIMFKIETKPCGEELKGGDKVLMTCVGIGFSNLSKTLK
UniProt Q14257: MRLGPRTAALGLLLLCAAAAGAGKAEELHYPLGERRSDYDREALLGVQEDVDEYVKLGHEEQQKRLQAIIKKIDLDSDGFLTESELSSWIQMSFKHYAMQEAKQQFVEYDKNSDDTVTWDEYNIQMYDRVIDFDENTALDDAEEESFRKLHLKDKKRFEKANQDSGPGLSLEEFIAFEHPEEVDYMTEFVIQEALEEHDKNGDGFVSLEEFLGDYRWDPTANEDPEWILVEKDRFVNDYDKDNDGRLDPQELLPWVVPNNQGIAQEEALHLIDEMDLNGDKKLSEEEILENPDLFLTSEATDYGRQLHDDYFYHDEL
UniProt Q96D15: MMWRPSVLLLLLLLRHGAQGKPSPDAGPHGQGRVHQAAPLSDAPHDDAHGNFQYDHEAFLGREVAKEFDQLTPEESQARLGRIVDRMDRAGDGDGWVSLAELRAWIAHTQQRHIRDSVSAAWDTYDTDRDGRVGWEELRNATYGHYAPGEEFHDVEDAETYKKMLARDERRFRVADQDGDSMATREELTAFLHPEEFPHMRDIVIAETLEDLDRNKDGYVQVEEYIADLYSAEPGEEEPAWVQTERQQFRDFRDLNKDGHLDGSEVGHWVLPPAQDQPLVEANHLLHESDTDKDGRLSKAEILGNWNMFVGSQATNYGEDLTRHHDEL
UniProt P18754: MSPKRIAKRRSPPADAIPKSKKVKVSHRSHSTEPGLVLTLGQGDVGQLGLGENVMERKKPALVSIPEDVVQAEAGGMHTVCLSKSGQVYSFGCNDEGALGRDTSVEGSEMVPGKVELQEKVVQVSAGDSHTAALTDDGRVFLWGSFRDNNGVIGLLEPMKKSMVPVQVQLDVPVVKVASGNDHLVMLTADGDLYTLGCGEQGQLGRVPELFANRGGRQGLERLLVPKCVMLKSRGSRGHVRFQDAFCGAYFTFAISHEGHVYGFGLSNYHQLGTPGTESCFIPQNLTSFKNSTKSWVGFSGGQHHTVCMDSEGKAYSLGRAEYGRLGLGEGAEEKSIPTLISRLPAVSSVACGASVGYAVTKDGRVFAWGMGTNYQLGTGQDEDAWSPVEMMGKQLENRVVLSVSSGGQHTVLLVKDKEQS
UniProt Q9NPQ8: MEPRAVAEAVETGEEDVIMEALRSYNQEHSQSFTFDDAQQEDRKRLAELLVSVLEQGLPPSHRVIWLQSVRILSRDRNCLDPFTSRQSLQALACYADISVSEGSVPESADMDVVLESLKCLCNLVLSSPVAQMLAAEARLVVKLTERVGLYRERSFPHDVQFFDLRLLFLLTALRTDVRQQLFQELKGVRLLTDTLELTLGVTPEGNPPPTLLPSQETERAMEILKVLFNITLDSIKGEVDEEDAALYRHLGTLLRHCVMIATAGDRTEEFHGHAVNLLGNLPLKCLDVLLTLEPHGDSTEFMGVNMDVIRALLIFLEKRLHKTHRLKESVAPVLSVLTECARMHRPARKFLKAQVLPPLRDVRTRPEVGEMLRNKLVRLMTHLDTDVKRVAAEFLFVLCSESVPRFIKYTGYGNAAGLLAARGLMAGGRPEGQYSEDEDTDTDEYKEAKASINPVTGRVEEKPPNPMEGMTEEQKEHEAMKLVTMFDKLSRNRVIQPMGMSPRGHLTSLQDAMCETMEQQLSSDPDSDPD
UniProt Q5TA31: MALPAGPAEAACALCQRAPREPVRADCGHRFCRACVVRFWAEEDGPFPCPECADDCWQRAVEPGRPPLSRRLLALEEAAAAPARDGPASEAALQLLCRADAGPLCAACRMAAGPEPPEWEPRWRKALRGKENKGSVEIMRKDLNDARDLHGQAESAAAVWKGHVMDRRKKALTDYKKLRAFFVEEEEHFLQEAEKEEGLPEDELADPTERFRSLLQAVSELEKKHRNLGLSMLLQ
UniProt P46063: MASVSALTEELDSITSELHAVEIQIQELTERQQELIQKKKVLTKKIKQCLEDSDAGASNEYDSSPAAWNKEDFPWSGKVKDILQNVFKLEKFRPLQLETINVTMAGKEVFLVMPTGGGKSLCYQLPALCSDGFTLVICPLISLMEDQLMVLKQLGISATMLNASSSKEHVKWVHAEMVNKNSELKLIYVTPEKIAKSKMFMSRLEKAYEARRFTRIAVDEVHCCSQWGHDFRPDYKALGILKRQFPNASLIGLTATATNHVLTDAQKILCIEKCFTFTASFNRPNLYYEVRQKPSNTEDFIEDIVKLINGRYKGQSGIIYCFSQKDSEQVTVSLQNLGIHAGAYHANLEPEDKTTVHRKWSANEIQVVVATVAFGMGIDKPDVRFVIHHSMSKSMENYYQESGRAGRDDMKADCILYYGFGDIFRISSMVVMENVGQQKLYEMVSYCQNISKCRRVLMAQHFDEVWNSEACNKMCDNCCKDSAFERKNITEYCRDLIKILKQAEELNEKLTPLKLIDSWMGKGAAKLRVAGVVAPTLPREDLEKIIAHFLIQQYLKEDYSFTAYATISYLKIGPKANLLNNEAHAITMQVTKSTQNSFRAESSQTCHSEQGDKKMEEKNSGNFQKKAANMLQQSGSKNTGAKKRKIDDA

Key:
Experiment in all cases: log2 fold change, soluble protein after heating vs DMSO (PISA); higher = thermal stabilisation; K562 cells, 10 uM, 30 min; active = over 0.2 and 3.5 SD of the protein, either way, in both replicates (recomputed)
[1] = compound: CS(=O)(=O)c1ccc(-c2cnc(N)c(C(=O)Nc3ccccc3)n2)cc1
Summary of the method: (§1)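 Soluble protein was defined as the supernatant after 21,000xg for 90 min. It came from K562 cells at 2×10^6 cells/mL given 10 μM compound for 30 min, heated in aliquots for 3 min across 48°C-58°C, pooled, and extracted in PBS with 0.5% NP-40 at 4°C, and was quantified by TMTpro 16plex LC-MS/MS with equalised channel sums. Thermal stability against control samples, from duplicates, is reported as log2 fold change.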

crizotinib = compound: C[C@@H](Oc1cc(-c2cnn(C3CCNCC3)c2)cnc1N)c1c(Cl)ccc(F)c1Cl [crizotinib]
Summary of the method: as §1

[2] = compound: C[C@@H]1COCCN1C2=NC(=NC(=C2)C3(CC3)S(=O)(=O)C)C4=C5C=CNC5=CC=C4
Summary of the method: as §1

[3] = compound: C[C@H](C1=CC=C(C=C1)C(=O)NC2=C3C=CNC3=NC=C2)N
Summary of the method: as §1

duvelisib = compound: C[C@H](Nc1ncnc2nc[nH]c12)c1cc2cccc(Cl)c2c(=O)n1-c1ccccc1 [duvelisib]
Summary of the method: as §1

gandotinib = compound: Cc1cc(Nc2cc(CN3CCOCC3)c3nc(C)c(Cc4ccc(Cl)cc4F)n3n2)n[nH]1 [gandotinib]
Summary of the method: as §1

tozasertib = compound: Cc1cc(Nc2cc(N3CCN(C)CC3)nc(Sc3ccc(NC(=O)C4CC4)cc3)n2)n[nH]1 [tozasertib]
Summary of the method: as §1

[4] = compound: Cc1cc(SCc2sc(-c3ccc(C(F)(F)F)cc3)nc2C)ccc1OCC(=O)O
Summary of the method: as §1

doramapimod = compound: Cc1ccc(-n2nc(C(C)(C)C)cc2NC(=O)Nc2ccc(OCCN3CCOCC3)c3ccccc23)cc1 [doramapimod]
Summary of the method: as §1

ispinesib = compound: Cc1ccc(C(=O)N(CCCN)[C@@H](c2nc3cc(Cl)ccc3c(=O)n2Cc2ccccc2)C(C)C)cc1 [ispinesib]
Summary of the method: as §1

bafetinib = compound: Cc1ccc(NC(=O)c2ccc(CN3CC[C@H](N(C)C)C3)c(C(F)(F)F)c2)cc1Nc1nccc(-c2cncnc2)n1 [bafetinib]
Summary of the method: as §1

[5] = compound: Cc1cccc(CC(=O)N2CCc3c2ccc(-c2cn(C)c4ncnc(N)c24)c3F)n1
Summary of the method: as §1

nilotinib = compound: Cc1cn(-c2cc(NC(=O)c3ccc(C)c(Nc4nccc(-c5cccnc5)n4)c3)cc(C(F)(F)F)c2)cn1 [nilotinib]
Summary of the method: as §1

[6] = compound: Cc1nc(Nc2n[nH]c3c2CN(C(=O)N[C@H](CN(C)C)c2ccccc2)C3(C)C)c2sccc2n1
Summary of the method: as §1

dasatinib = compound: Cc1nc(Nc2ncc(C(=O)Nc3c(C)cccc3Cl)s2)cc(N2CCN(CCO)CC2)n1 [dasatinib]
Summary of the method: as §1

[7] = compound: Cc1ncc(-c2ccnc(Nc3ccc(S(C)(=O)=O)cc3)n2)n1C(C)C
Summary of the method: as §1

[8] = compound: Cn1cc(-c2ccc3c(c2)CCN3C(=O)Cc2cccc(C(F)(F)F)c2)c2c(N)ncnc21
Summary of the method: as §1

[9] = compound: Cn1cc(-c2ccc3nnc(C(F)(F)c4ccc5ncccc5c4)n3n2)cn1
Summary of the method: as §1

tipifarnib = compound: Cn1cncc1[C@@](N)(c1ccc(Cl)cc1)c1ccc2c(c1)c(-c1cccc(Cl)c1)cc(=O)n2C [tipifarnib]
Summary of the method: as §1

mubritinib = compound: FC(F)(F)c1ccc(/C=C/c2nc(COc3ccc(CCCCn4ccnn4)cc3)co2)cc1 [mubritinib]
Summary of the method: as §1

Measured: log2 fold change

RENBP (UniProt P51606)
inactive: [1] -0.012 | crizotinib 0.073 | [2] 0.012 | [3] -0.2 | duvelisib 0.087 | gandotinib -0.058 | tozasertib -0.01 | [4] 0 | doramapimod 0.017 | ispinesib 0.016 | bafetinib 0.005 | [5] -0.013 | nilotinib -0.036 | [6] -0.057 | dasatinib 0.028 | [7] 0.036 | [8] 0.069 | [9] 0.01 | tipifarnib 0.036 | mubritinib 0.031

RILPL1 (UniProt Q5EBL4)
inactive: [1] -0.102 | crizotinib 0.024 | [2] -0.038 | [3] -0.028 | duvelisib 0.019 | tozasertib 0.12 | [4] -0.124 | doramapimod -0.034 | ispinesib -0.227 | dasatinib -0.429 | [8] 0.101 | [9] -0.017 | mubritinib 0.132

RFC4 (UniProt P35249)
inactive: [1] -0.038 | crizotinib -0.065 | [2] 0.059 | [3] -0.025 | duvelisib 0.011 | gandotinib -0.026 | tozasertib -0.014 | [4] -0.022 | doramapimod -0.008 | ispinesib -0.02 | bafetinib -0.036 | [5] 0.056 | nilotinib -0.04 | [6] -0.025 | dasatinib -0.046 | [7] -0.001 | [8] 0.042 | [9] 0.046 | tipifarnib -0.002 | mubritinib -0.012

RHOB (UniProt P62745)
inactive: [1] 0.011 | crizotinib 0.087 | [2] 0.03 | [3] -0.088 | duvelisib 0.111 | gandotinib 0.091 | tozasertib -0.088 | [4] 0.024 | doramapimod -0.16 | ispinesib 0.125 | bafetinib 0 | [5] 0.077 | nilotinib -0.032 | [6] 0.026 | dasatinib 0.24 | [7] 0.019 | [8] -0.017 | [9] -0.081 | tipifarnib 0.017 | mubritinib -0.025

RNF13 (UniProt O43567)
inactive: [1] 0.063 | crizotinib -0.192 | [2] -0.021 | [3] 0.087 | duvelisib -0.053 | tozasertib 0.038 | [4] 0.015 | doramapimod 0.083 | bafetinib -0.118 | dasatinib 0.07 | [8] -0.004

RFC5 (UniProt P40937)
inactive: [1] -0.001 | crizotinib -0.068 | [2] 0.065 | [3] -0.072 | duvelisib -0.004 | gandotinib -0.024 | tozasertib -0.019 | [4] 0.011 | doramapimod -0.017 | ispinesib -0.065 | bafetinib -0.059 | [5] 0.004 | nilotinib -0.068 | [6] -0.032 | dasatinib -0.076 | [7] 0 | [8] 0.033 | [9] 0.01 | tipifarnib -0.027 | mubritinib -0.021

RNF114 (UniProt Q9Y508)
inactive: [1] 0.036 | crizotinib 0.018 | [2] 0.053 | [3] -0.046 | duvelisib 0.089 | gandotinib 0.027 | tozasertib 0.02 | [4] 0.037 | doramapimod -0.065 | ispinesib 0.034 | bafetinib -0.043 | [5] -0.008 | nilotinib 0.022 | [6] -0.008 | dasatinib -0.039 | [7] -0.02 | [8] 0.002 | [9] -0.031 | tipifarnib -0.082 | mubritinib 0.002

RFC3 (UniProt P40938)
inactive: [1] 0.029 | crizotinib 0.016 | [2] 0.163 | [3] 0.071 | gandotinib -0.042 | [4] 0.061 | doramapimod -0.005 | ispinesib 0.067 | bafetinib -0.035 | [5] 0.049 | nilotinib -0.016 | [6] -0.017 | dasatinib -0.032 | [7] -0.011 | [8] 0.053 | [9] -0.01 | tipifarnib -0.051 | mubritinib 0.045

RMND1 (UniProt Q9NWS8)
inactive: [1] 0.028 | crizotinib -0.043 | [2] 0.052 | [3] -0.006 | duvelisib 0.062 | gandotinib 0.092 | tozasertib -0.034 | [4] -0.026 | doramapimod -0.002 | ispinesib 0.042 | bafetinib -0.041 | [5] -0.017 | nilotinib -0.022 | [6] 0.002 | dasatinib -0.046 | [7] -0.091 | [8] 0.064 | [9] 0.037 | tipifarnib -0.067 | mubritinib 0.002

RC3H1 (UniProt Q5TC82)
inactive: [1] -0.11 | crizotinib -0.065 | [2] -0.023 | [3] 0.106 | duvelisib 0.051 | gandotinib -0.162 | tozasertib 0.044 | [4] 0.009 | doramapimod -0.022 | [5] -0.343 | dasatinib -0.108 | [8] -0.09 | tipifarnib 0.013 | mubritinib -0.215

RCL1 (UniProt Q9Y2P8)
inactive: [1] 0.018 | crizotinib -0.082 | [2] -0.289 | [3] 0.462 | duvelisib -0.088 | gandotinib 0.141 | tozasertib 0.064 | [4] 0.061 | doramapimod 0.142 | ispinesib -0.183 | bafetinib 0.216 | [5] 0.047 | nilotinib -0.07 | [6] 0.043 | dasatinib 0.074 | [7] 0.055 | [8] -0.258 | [9] -0.13 | tipifarnib 0.138 | mubritinib -0.141

Pulled one by one from the list above, 2 records:
RCL1 (UniProt Q9Y2P8)
inactive: [1] 0.018 | crizotinib -0.082 | [2] -0.289 | [3] 0.462 | duvelisib -0.088 | gandotinib 0.141 | tozasertib 0.064 | [4] 0.061 | doramapimod 0.142 | ispinesib -0.183 | bafetinib 0.216 | [5] 0.047 | nilotinib -0.07 | [6] 0.043 | dasatinib 0.074 | [7] 0.055 | [8] -0.258 | [9] -0.13 | tipifarnib 0.138 | mubritinib -0.141

RNF114 (UniProt Q9Y508)
inactive: [1] 0.036 | crizotinib 0.018 | [2] 0.053 | [3] -0.046 | duvelisib 0.089 | gandotinib 0.027 | tozasertib 0.02 | [4] 0.037 | doramapimod -0.065 | ispinesib 0.034 | bafetinib -0.043 | [5] -0.008 | nilotinib 0.022 | [6] -0.008 | dasatinib -0.039 | [7] -0.02 | [8] 0.002 | [9] -0.031 | tipifarnib -0.082 | mubritinib 0.002

Next part:

RHBDD1 (UniProt Q8TEB9)
inactive: [1] -0.071 | crizotinib -0.136 | [2] -0.058 | [3] -0.01 | duvelisib -0.022 | gandotinib -0.019 | [4] -0.007 | doramapimod -0.053 | ispinesib -0.147 | bafetinib -0.16 | [5] 0.025 | nilotinib -0.014 | [6] -0.377 | dasatinib 0.038 | [7] 0.019 | [8] -0.008 | [9] 0.054 | tipifarnib 0.009 | mubritinib 0.028

RCN2 isoform 2 (UniProt Q14257)
inactive: [1] 0.012 | crizotinib 0.033 | [2] -0.011 | [3] 0.03 | duvelisib -0.017 | gandotinib 0.002 | tozasertib 0.045 | [4] -0.015 | doramapimod -0.009 | ispinesib -0.016 | bafetinib 0.018 | [5] -0.028 | nilotinib 0.051 | [6] 0 | dasatinib 0.044 | [7] -0.021 | [8] -0.029 | [9] 0.012 | tipifarnib 0.076 | mubritinib -0.063

RCN3 (UniProt Q96D15)
inactive: [1] -0.016 | crizotinib -0.028 | [2] -0.02 | [3] -0.041 | gandotinib 0.029 | [4] -0.058 | doramapimod 0.092 | ispinesib -0.033 | bafetinib -0.015 | nilotinib 0.015 | [6] -0.011 | dasatinib 0.045 | [7] 0.011 | [8] 0.162 | [9] 0.057 | tipifarnib -0.038 | mubritinib -0.056
active: [5] -0.318

RCC1 isoform 2 (UniProt P18754)
active: [1] 0.418
inactive: crizotinib -0.032 | [2] 0.13 | [3] -0.04 | gandotinib -0.1 | [4] 0.154 | doramapimod -0.008 | ispinesib -0.007 | bafetinib 0.013 | [5] 0.002 | nilotinib 0.069 | [6] -0.137 | dasatinib -0.159 | [7] 0 | [8] 0.139 | [9] -0.004 | tipifarnib -0.112 | mubritinib 0.296

RIC8A isoform 3 (UniProt Q9NPQ8)
inactive: [1] 0.042 | crizotinib -0.085 | [2] -0.036 | [3] 0.094 | gandotinib -0.038 | [4] 0.193 | doramapimod 0.094 | ispinesib -0.145 | bafetinib 0.042 | [5] -0.062 | nilotinib -0.041 | [6] -0.043 | dasatinib -0.108 | [7] 0.088 | [8] 0.03 | [9] 0.014 | tipifarnib -0.1 | mubritinib -0.095

RNF187 (UniProt Q5TA31)
inactive: [1] -0.097 | crizotinib -0.018 | [2] -0.019 | [3] -0.027 | gandotinib -0.111 | [4] 0.038 | doramapimod 0.015 | ispinesib 0.191 | bafetinib 0.009 | [5] 0.088 | nilotinib 0.029 | [6] -0.041 | dasatinib 0.022 | [7] -0.001 | [8] -0.105 | [9] 0.006 | tipifarnib -0.07 | mubritinib 0.102

RECQL (UniProt P46063)
inactive: [1] 0.031 | crizotinib 0.033 | [2] 0.112 | [3] -0.082 | gandotinib -0.057 | [4] 0.003 | doramapimod -0.011 | ispinesib 0.056 | bafetinib 0.005 | [5] -0.019 | nilotinib 0.025 | [6] 0.006 | dasatinib -0.043 | [7] -0.033 | [8] 0.055 | [9] -0.006 | tipifarnib -0.034 | mubritinib 0.017
